The values that follow are results of earlier work, collected in US8183383B2, “Protein tyrosine phosphatase 1B inhibitor, preparation methods and uses thereof” (Shanghai Institute of Materia Medica, Chinese Academy of …, priority 2007, dated 2012).

By UniProt entry, the sequences of proteins in these tests, tags left out.
UniProt P18031, whole entry: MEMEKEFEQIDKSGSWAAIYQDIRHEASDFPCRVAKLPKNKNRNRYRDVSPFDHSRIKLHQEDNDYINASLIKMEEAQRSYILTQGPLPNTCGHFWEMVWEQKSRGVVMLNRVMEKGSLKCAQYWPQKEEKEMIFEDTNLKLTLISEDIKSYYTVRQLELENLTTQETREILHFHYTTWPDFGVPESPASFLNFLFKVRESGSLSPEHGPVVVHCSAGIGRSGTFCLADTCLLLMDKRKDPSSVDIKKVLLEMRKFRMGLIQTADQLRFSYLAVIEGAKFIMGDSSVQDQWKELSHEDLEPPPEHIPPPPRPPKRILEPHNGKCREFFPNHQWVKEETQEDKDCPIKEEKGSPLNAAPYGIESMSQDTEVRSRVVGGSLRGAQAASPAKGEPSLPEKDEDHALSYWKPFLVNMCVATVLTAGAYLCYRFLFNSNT

The data set deals with PTP1B (Homo sapiens, UniProt P18031). The conditions noted are these: background, selective peptide PTP1B inhibitor; cited from earlier work.

Structures are written as SMILES. The match of structure and compound is tentative.

As for `N[C@@H](CCC(=O)O)C(=O)N[C@@H](Cc1ccc(C(F)(F)P(=O)(O)O)cc1)C(=O)N[C@@H](Cc1ccc(C(F)(F)P(=O)(O)O)cc1)C(=O)O`, the IC50 (as a rule, the concentration that inhibits the measured activity by half) is 40 nM.

Regarding `CSCC[C@H](NC(=O)[C@H](Cc1ccc(C(F)(F)P(=O)(O)O)cc1)NC(=O)[C@H](CCC(=O)O)NC(=O)[C@H](CC(=O)O)NC(=O)[C@H](CCC(=O)O)NC(=O)[C@@H](N)CCC(=O)O)C(=O)O`, the Ki – broadly, the equilibrium dissociation constant of an inhibitor or competing ligand from its target – was 7.2 nM.
